The values below come from the supplement of paper PMC10849652.

Sequences of proteins named here, by UniProt entry; tags and fusion partners are left off. A change or cut given only in a name is not applied to a line headed by its entry.
UniProt Q9Y3B9: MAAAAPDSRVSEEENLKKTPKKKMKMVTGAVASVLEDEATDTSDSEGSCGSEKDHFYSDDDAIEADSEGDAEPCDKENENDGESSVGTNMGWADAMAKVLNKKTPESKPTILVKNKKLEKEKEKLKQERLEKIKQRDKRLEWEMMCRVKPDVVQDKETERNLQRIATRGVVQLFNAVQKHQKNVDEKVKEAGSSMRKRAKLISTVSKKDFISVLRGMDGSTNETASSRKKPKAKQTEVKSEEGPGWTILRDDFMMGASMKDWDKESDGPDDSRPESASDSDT
UniProt Q9NR31: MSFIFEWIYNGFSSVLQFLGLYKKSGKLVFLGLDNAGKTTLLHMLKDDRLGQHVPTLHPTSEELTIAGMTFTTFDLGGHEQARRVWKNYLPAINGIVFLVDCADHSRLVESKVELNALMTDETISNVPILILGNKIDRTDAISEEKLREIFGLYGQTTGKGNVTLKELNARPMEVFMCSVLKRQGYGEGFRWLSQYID
UniProt P31949: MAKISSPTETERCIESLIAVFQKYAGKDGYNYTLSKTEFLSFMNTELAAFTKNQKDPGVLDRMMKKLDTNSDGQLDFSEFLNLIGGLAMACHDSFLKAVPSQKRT
UniProt Q9UHR5: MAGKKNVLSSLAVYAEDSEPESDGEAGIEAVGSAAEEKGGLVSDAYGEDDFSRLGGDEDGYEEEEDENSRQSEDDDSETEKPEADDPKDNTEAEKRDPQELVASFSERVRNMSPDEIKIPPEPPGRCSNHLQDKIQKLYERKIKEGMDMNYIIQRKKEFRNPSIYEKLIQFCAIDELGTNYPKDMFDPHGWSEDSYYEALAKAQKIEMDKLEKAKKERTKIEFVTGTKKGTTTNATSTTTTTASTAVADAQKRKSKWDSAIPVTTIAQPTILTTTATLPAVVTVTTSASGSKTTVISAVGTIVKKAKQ
UniProt Q9Y6B6: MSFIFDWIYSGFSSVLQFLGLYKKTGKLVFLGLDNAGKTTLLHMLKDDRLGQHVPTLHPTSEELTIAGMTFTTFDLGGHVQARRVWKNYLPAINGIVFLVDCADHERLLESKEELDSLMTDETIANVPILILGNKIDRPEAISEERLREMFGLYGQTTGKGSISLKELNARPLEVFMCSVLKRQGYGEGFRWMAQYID
UniProt Q9H446: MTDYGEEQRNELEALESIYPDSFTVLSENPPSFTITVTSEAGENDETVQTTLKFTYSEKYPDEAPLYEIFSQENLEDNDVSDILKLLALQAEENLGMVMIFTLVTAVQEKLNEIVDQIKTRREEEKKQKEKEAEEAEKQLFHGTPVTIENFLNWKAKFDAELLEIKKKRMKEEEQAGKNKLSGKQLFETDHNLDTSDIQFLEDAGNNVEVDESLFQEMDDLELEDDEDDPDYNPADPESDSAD
UniProt Q9Y6U3: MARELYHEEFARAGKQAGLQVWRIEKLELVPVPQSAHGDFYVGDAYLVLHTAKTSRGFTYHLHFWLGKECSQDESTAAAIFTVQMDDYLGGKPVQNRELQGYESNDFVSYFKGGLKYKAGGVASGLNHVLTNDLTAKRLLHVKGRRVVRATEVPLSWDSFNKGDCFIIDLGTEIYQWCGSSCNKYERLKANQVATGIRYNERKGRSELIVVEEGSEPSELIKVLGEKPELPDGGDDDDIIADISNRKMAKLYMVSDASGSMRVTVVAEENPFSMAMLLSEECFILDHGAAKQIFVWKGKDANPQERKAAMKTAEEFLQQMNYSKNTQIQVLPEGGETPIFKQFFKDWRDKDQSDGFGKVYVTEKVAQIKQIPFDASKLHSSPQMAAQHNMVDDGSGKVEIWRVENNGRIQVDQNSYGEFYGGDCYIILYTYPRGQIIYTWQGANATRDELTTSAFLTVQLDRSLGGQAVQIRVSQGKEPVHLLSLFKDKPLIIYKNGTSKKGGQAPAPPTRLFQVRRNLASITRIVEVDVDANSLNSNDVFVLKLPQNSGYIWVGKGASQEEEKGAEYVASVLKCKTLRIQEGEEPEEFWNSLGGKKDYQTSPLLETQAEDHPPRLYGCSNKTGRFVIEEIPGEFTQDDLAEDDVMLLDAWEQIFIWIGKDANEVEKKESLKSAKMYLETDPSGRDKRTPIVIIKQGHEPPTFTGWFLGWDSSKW
UniProt Q9BRK5: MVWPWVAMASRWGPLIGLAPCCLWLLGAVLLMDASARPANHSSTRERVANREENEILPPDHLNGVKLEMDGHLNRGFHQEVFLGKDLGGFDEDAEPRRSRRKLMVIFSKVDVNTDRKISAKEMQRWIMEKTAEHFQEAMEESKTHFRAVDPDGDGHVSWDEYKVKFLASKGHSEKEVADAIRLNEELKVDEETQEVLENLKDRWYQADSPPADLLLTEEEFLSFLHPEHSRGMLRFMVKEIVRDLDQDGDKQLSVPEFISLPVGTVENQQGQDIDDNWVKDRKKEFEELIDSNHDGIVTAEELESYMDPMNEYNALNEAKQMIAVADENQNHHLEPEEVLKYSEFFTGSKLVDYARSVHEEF
UniProt Q8N488: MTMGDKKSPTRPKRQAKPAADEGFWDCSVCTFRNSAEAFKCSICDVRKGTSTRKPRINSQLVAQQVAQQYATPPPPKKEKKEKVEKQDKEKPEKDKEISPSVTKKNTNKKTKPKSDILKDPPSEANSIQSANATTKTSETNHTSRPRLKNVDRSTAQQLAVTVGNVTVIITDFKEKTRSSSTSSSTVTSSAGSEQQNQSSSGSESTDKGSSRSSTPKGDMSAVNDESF
UniProt O75880: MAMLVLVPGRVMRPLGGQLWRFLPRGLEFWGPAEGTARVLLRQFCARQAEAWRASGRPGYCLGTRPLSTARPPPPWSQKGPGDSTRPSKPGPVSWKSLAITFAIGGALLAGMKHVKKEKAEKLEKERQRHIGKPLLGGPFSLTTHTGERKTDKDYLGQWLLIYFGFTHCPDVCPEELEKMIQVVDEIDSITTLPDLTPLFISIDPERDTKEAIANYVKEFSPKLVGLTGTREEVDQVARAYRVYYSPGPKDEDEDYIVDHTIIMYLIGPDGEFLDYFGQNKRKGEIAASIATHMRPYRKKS
UniProt Q9Y224: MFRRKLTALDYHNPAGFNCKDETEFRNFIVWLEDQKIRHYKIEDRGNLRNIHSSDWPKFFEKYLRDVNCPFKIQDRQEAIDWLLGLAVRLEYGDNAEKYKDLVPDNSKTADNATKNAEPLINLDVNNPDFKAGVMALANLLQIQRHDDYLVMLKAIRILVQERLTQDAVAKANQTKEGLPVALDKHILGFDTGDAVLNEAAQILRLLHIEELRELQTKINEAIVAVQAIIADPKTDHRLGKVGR
UniProt Q96KG9: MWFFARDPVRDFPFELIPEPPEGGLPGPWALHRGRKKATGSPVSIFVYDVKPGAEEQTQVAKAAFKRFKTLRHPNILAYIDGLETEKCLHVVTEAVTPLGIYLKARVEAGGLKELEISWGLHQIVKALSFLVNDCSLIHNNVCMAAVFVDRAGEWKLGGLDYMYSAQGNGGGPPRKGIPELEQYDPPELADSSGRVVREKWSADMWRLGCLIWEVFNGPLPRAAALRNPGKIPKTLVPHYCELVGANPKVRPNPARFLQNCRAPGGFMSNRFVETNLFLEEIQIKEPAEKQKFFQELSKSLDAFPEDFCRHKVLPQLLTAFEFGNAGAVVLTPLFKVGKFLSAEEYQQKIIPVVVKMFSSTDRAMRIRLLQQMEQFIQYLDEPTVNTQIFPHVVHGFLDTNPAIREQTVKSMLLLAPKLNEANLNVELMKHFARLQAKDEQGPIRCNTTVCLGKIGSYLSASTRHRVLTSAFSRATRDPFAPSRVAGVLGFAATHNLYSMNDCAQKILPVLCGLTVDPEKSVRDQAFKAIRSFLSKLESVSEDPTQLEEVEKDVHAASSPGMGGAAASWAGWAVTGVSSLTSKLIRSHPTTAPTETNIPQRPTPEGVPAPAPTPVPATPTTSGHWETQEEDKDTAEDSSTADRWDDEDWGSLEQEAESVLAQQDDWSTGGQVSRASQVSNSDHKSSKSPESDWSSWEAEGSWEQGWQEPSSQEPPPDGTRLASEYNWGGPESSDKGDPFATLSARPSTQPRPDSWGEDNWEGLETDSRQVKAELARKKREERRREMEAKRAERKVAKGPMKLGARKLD
UniProt Q9Y265, whole entry, looked up: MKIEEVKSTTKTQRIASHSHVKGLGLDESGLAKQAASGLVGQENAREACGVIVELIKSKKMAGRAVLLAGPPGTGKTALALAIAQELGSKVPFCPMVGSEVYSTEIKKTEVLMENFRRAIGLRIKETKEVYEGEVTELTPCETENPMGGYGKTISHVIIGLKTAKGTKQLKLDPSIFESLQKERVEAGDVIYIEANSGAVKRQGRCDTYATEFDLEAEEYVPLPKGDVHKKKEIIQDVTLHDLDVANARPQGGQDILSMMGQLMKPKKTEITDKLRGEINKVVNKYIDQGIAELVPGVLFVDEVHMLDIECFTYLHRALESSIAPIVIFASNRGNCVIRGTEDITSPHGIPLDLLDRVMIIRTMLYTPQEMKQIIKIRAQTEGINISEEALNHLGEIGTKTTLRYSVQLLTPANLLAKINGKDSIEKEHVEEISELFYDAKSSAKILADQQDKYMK
UniProt Q9NRP4: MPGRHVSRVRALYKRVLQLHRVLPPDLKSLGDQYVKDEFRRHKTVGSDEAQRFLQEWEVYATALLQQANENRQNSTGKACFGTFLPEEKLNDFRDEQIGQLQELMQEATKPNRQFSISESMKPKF
UniProt Q96I15: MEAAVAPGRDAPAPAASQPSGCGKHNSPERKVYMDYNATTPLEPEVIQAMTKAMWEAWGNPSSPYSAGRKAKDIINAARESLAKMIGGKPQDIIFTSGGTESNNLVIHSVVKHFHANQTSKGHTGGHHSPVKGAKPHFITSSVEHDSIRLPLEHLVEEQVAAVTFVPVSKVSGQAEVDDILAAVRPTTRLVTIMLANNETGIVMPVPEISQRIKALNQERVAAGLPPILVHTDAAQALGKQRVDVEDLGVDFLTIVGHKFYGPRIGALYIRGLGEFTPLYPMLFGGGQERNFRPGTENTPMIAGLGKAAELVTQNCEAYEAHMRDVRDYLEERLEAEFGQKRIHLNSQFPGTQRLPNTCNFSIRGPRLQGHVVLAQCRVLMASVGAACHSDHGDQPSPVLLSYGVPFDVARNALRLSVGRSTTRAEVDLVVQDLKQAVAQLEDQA
UniProt P25815: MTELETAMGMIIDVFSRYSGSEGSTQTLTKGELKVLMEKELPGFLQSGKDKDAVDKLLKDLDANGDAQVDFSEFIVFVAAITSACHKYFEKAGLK
UniProt Q969E2: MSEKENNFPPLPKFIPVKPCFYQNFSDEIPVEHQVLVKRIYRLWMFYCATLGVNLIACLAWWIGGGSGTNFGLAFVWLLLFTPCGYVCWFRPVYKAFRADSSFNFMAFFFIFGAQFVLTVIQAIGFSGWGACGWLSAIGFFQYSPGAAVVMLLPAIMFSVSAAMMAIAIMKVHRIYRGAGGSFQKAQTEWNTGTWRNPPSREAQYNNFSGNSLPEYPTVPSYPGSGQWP
UniProt O94855: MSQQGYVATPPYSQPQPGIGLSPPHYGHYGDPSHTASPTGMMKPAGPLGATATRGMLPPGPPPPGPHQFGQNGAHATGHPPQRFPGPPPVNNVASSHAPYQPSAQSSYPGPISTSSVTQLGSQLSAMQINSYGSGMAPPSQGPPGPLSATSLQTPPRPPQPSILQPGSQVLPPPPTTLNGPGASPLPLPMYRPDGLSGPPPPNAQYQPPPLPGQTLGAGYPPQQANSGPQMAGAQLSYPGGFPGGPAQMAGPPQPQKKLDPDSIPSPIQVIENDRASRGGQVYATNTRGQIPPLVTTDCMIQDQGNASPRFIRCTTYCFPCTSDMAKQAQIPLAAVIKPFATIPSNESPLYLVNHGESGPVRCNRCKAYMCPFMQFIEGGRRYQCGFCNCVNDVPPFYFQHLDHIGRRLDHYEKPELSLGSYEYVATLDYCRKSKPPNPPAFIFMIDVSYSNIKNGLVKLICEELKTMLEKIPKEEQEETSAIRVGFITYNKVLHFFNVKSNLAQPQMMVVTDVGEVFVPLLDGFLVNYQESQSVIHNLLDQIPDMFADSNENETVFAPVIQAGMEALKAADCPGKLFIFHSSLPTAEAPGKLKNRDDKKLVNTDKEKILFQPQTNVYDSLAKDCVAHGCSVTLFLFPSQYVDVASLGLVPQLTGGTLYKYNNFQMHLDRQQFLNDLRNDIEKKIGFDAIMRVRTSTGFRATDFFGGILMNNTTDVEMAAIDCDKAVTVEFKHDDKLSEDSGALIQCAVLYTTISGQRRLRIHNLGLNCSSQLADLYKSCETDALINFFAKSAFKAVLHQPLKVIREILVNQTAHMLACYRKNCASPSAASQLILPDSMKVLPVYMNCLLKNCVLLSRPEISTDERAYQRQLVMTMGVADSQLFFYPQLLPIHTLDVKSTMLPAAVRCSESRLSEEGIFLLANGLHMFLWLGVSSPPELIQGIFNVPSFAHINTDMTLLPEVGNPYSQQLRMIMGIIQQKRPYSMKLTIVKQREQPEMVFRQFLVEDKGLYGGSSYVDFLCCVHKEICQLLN

Some of the results follow.

Compound in one assay: Cn1cc(-c2ccc3c(c2)CCN3C(=O)Cc2cccc(C(F)(F)F)c2)c2c(N)ncnc21
Description: log2 fold change, soluble protein after heating vs DMSO (PISA); higher = thermal stabilisation; K562 cells, 10 uM, 30 min; active = over 0.2 and 3.5 SD of the protein, either way, in both replicates (recomputed). The method in brief:
(§1)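 Soluble protein was quantified by TMTpro 16plex LC-MS/MS after channel sums were equalised. It was obtained as the supernatant after 21,000xg for 90 min from pooled aliquots of K562 cells (2×10^6 cells/mL, 10 μM compound, 30 min) heated for 3 min across 48°C-58°C and extracted in PBS with 0.5% NP-40 at 4°C. Thermal stability values are relative to control samples and come from duplicates. They are given as log2 fold changes.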
For RRP15 (UniProt Q9Y3B9), the log2 fold change is inactive: 0.011.
SBF1 isoform 4 (UniProt O95248): the log2 fold change was inactive: 0.039.
The same measure, in the same setting: to SARG (UniProt Q9BW04) belongs inactive: 0.013; to SAR1A (UniProt Q9NR31), inactive: 0.011.
Same read-out and setting: for S100A11 (UniProt P31949) the value was inactive: 0.065; for SAP30BP (UniProt Q9UHR5), inactive: -0.006; for SAR1B (UniProt Q9Y6B6), inactive: 0.036.

Compound in a further assay: Cn1cc(-c2ccc3nnc(C(F)(F)c4ccc5ncccc5c4)n3n2)cn1
Described as above. The method in brief: as §1
With SCFD2 (UniProt Q8WU76), the log2 fold change is inactive: -0.037.
As for SCARB1 isoform 2 (UniProt Q8WTV0), the log2 fold change was inactive: 0.016.
Still for that read-out and setting: for RWDD1 (UniProt Q9H446) the value was inactive: 0.056; for SCIN (UniProt Q9Y6U3), inactive: -0.041; for SDF4 (UniProt Q9BRK5), inactive: 0.02.
The same measure, in the same setting: for RYBP (UniProt Q8N488) the value was inactive: 0.064.
In the case of SCO1 (UniProt O75880), the log2 fold change was inactive: 0.022.
For SACS (UniProt Q9NZJ4), the log2 fold change was inactive: 0.072.
Still for that read-out and setting: to RTRAF (UniProt Q9Y224) belongs inactive: 0.005; to SCYL1 (UniProt Q96KG9), inactive: -0.024; to S100A6 (UniProt P06703), inactive: 0.09.
The same measure, in the same setting: to SDHA (UniProt P31040) belongs inactive: 0.008; to RSBN1L (UniProt Q6PCB5), inactive: -0.136; to RUVBL1 (UniProt Q9Y265), inactive: -0.009.
Still for that read-out and setting: for SDHAF3 (UniProt Q9NRP4) the value was inactive: 0.058.
As to SBNO1 (UniProt A3KN83), the log2 fold change was inactive: -0.011.
On to SCLY (UniProt Q96I15), for which the log2 fold change is inactive: -0.048.
As for S100P (UniProt P25815), the log2 fold change was inactive: 0.377.
On to SCP2 (UniProt P22307), for which the log2 fold change was inactive: 0.014.
The same measure, in the same setting: to SCAMP4 (UniProt Q969E2) belongs inactive: -0.054.
In the case of SCARB2 (UniProt Q14108), the log2 fold change was inactive: -0.009.
As to SCAP (UniProt Q12770), the log2 fold change was inactive: 0.042.
For the target SEC24D isoform 2 (UniProt O94855), the log2 fold change was inactive: -0.041.
Still for that read-out and setting: for RRP15 (UniProt Q9Y3B9) the value was inactive: -0.031; for SBF1 isoform 4 (UniProt O95248), inactive: -0.056; for SARG (UniProt Q9BW04), inactive: 0.034.
Still for that read-out and setting: to SAR1A (UniProt Q9NR31) belongs inactive: -0.035; to S100A11 (UniProt P31949), inactive: 0.22; to SAP30BP (UniProt Q9UHR5), inactive: -0.057.
The same measure, in the same setting: for SAR1B (UniProt Q9Y6B6) the value was inactive: 0.026.
